# According to publication PMC12152850:
# Results are given in words; binding and its absence hold for the method and conditions named. In cells and extracts the contact can be indirect. Some entries that bind do so weakly or less than the wild type.
# T1: PGC-1α (UniProt Q9UBK2)
# T1 sequence: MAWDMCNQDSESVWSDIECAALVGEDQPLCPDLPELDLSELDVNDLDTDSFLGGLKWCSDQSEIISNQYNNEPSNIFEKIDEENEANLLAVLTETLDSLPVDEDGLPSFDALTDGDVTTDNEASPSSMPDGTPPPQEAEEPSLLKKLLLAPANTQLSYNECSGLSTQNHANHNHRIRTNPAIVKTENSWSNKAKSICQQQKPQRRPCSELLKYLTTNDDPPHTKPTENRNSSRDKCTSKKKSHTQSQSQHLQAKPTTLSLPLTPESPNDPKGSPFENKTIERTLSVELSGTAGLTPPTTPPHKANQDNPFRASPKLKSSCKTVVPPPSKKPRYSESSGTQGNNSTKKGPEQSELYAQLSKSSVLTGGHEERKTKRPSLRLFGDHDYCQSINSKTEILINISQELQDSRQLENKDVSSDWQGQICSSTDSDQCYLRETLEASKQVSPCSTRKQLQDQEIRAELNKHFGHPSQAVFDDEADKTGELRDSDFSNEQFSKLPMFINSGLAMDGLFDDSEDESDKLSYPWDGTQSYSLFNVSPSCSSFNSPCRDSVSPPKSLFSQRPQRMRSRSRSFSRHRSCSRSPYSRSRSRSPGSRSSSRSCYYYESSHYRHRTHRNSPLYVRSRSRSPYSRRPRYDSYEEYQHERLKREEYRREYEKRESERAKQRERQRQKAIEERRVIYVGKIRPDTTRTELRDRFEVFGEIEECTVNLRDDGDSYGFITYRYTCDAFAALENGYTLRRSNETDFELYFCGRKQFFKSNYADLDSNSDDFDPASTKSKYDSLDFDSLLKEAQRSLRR
# Molecular target: T1, PGC-1α
# Test: co-IP; SW872 adipocytes by the figure's title; bait, antibodies and conditions not told
binder,measurement,value
"FNDC5/irisin (protein, UniProt Q8NAU1 1-260) MQAARGGAGRPERPGRPGRGPERERERPPGAGAASPCAAPGLPAGGATIHPGSPSAWPPRARAALRLWLGCVCFALVQADSPSAPVNVTVRHLKANSAVVSWDVLEDEVVIGFAISQQKKDVRMLRFIQEVNTTTRSCALWDLEEDTEYIVHVQAISIQGQSPASEPVLFKTPREAEKMASKNKDEVTMKEMGRNQQLRTGEVLIIVVVLFMWAGVIALFCRQYDIIKDNEPNNNKEKTKSASETSTPEHQGGGLLRSKI",binding,binds
